Measurements published in doi:10.1101/687780.
These are yes or no findings as the source states them, for the method shown. Binding seen in cells or lysates may run through a third protein. Some results given as binding are weak or reduced against the parent protein; the word gives no strength.

Target: adenosine A2A receptor (human (endogenous in postmortem ventral striatum)) (UniProt P29274)
Test: proximity ligation

binding: binds
Substance: dopamine D2 receptor (from UniProt P14416 1-443)
